Reference: patent publication US10702592B2, “Peptides and combination of peptides for use in immunotherapy against NHL and other cancers” (Immatics Biotechnologies GmbH, priority 2016, dated 2020)

What was measured:
[1] = test system: other tumor types (tumor samples vs normal tissues); assay: LC-MS detection / over-presentation of peptides on additional tumor types; parameters: species or system human; details: for Other relevant organs / diseases (additional tumor types with over-presentation): over-presented on >5% of measured tumor samples, or presented on >5% with ratio of geometric means tumor vs normal >3; for Other relevant organs/diseases: additional tumor types on which the peptide was found: over-presented on more than 5% of measured tumor samples, or presented on more than 5% with ratio of geometric means tumor vs normal tissues larger than 3
NHL samples = assay: Identification and label-free LC-MS quantitation of HLA-presented peptides: presentation profile/score, NHL vs normal tissues; parameters: species or system human; key: very highly over-presented on tumors compared to a panel of normal tissues (+++); highly over-presented on tumors compared to a panel of normal tissues (++); over-presented on tumors compared to a panel of normal tissues (+); details: NHL tumors compared to a panel of normal tissues

| Substance | Other relevant organs / diseases (additional tumor types with over-presentation) [1] | Peptide Presentation (NHL samples) | Other relevant organs/diseases [1] |
| --- | --- | --- | --- |
| 256 (ALQETPPQV; listed as Homo sapiens) [compound 256] | AML | +++ |  |
| 141 (FLGELTLQL; listed as Homo sapiens) [compound 141] |  | +++ | Melanoma |
| 34 (LLWEDGVTEA; listed as Homo sapiens) [compound 34] |  | +++ | CRC, CLL, Melanoma, Esophageal Cancer, Urinary bladder cancer, Uterine Cancer, Gallbladder Cancer, Bile Duct Cancer |
| 95 (LLFDLIPVVSV; listed as Homo sapiens) [compound 95] | HNSCC | +++ | AML, BRCA, Uterine Cancer |
| 33 (LLANIVPIAMLV; listed as Homo sapiens) [compound 33] | Melanoma | +++ | CLL |
| 38 (YLTAEILELAGN; listed as Homo sapiens) [compound 38] | HNSCC | +++ | NSCLC, SCLC, CRC, HCC, BRCA, Melanoma, Urinary bladder cancer, Uterine Cancer, Gallbladder Cancer, Bile Duct Cancer |
| 274 (KLLNLISKL; listed as Homo sapiens) [compound 274] |  | +++ | AML |
| 219 (ALLELENSV; listed as Homo sapiens) [compound 219] |  | +++ | HCC, Uterine Cancer, Gallbladder Cancer, Bile Duct Cancer |
| 90 (HLDEVFLEL; listed as Homo sapiens) [compound 90] |  | +++ | SCLC |
| 265 (ILWHFVASL; listed as Homo sapiens) [compound 265] | AML | +++ | CLL, Uterine Cancer |
| 3 (LTIDTQYYL; listed as Homo sapiens) [compound 3] | HNSCC | +++ | CLL, Uterine Cancer |
| 169 (SSLEENLLHQV; listed as Homo sapiens) [compound 169] |  | +++ | HCC, CLL |
| 254 (FLYSETWNI; listed as Homo sapiens) [compound 254] | HNSCC | +++ | HCC, CLL, AML, Melanoma |
| 273 (AILLPQPPK; listed as Homo sapiens) [compound 273] |  | +++ | RCC, CLL, Melanoma, OC |
| 1 (LLSGQLPTI; listed as Homo sapiens) [compound 1] |  | +++ | CLL, Uterine Cancer |
| 203 (ILDTIFHKV; listed as Homo sapiens) [compound 203] |  | +++ | Melanoma |
| 237 (YLDRLIPQA; listed as Homo sapiens) [compound 237] |  | ++ | HCC, AML, Melanoma |
| 46 (FLVEEIFQT; listed as Homo sapiens) [compound 46] | AML | ++ | SCLC, Gallbladder Cancer, Bile Duct Cancer |
| 253 (YSDDDVPSV; listed as Homo sapiens) [compound 253] | AML, HNSCC | +++ | NSCLC, SCLC, CLL, Melanoma, Esophageal Cancer, OC, Urinary bladder cancer, Uterine Cancer, Gallbladder Cancer, Bile Duct Cancer |
| 32 (VLNEDELPSV; listed as Homo sapiens) [compound 32] |  | +++ | CLL |
| 290 (IASPVIAAV; listed as Homo sapiens) [compound 290] | NSCLC, SCLC, CRC, Uterine Cancer | +++ | HCC, PC, CLL, AML, BRCA, Melanoma, Gallbladder Cancer, Bile Duct Cancer |
| 9 (FLLDLDPLL; listed as Homo sapiens) [compound 9] |  | +++ | CLL |
| 107 (VQAVSIPEV; listed as Homo sapiens) [compound 107] | CLL, AML | +++ |  |
| 23 (ALVEDIINL; listed as Homo sapiens) [compound 23] | Urinary Bladder Cancer, AML, HNSCC | +++ | CRC, BRCA, Melanoma, Uterine Cancer |
| 211 (FIDDLFAFV; listed as Homo sapiens) [compound 211] |  | +++ | HCC, CLL, AML, Melanoma |

| Substance | Other relevant organs / diseases (additional tumor types with over-presentation) [1] | Peptide Presentation (NHL samples) | Other relevant organs/diseases [1] |
| --- | --- | --- | --- |
| 252 (YLGDLIMAL; listed as Homo sapiens) [compound 252] | AML | + | CLL |
| 102 (SLFAAISGMIL; listed as Homo sapiens) [compound 102] |  | +++ | CLL |
| 180 (GILQLVESV; listed as Homo sapiens) [compound 180] |  | ++ | HCC, CLL, AML, Melanoma, OC |
| 280 (SLLNHLPYL; listed as Homo sapiens) [compound 280] | HNSCC | +++ | CLL |
| 182 (LLPPPPPVA; listed as Homo sapiens) [compound 182] | HNSCC | + | SCLC, CLL, Melanoma |
| 119 (ELCDIILRV; listed as Homo sapiens) [compound 119] |  | +++ | Melanoma |
| 26 (FLGSFIDHV; listed as Homo sapiens) [compound 26] | SCLC, AML | +++ | Melanoma, OC, Uterine Cancer |
| 294 (KLYGPEGLELV; listed as Homo sapiens) [compound 294] |  | + | CLL |
| 125 (FVAPPTAAV; listed as Homo sapiens) [compound 125] |  | +++ | Melanoma, Urinary bladder cancer, Uterine Cancer |
| 37 (VLGNALEGV; listed as Homo sapiens) [compound 37] | SCLC | +++ | HCC, CLL, AML, Urinary bladder cancer, Uterine Cancer |
| 50 (LLLDGLIYL; listed as Homo sapiens) [compound 50] |  | + | CLL |
| 27 (FLNQESFDL; listed as Homo sapiens) [compound 27] |  | +++ | CLL, BRCA, Esophageal Cancer, Urinary bladder cancer, Uterine Cancer |
| 41 (ILASIFETV; listed as Homo sapiens) [compound 41] | HNSCC | +++ | NSCLC, SCLC, RCC, CLL, AML, BRCA, Melanoma, Urinary bladder cancer, Gallbladder Cancer, Bile Duct Cancer |
| 45 (FILDDSALYL; listed as Homo sapiens) [compound 45] |  | + | CLL, Uterine Cancer |
| 115 (LLIDIIHFL; listed as Homo sapiens) [compound 115] | AML | +++ |  |
| 87 (GLFARIIMI; listed as Homo sapiens) [compound 87] |  | +++ | Gallbladder Cancer, Bile Duct Cancer |
| 132 (VLQDQVDEL; listed as Homo sapiens) [compound 132] |  | +++ | CLL, AML, Melanoma |
| 64 (FLVEVSNDV; listed as Homo sapiens) [compound 64] |  | ++ | CLL, Uterine Cancer |
| 11 (GLDTVVALL; listed as Homo sapiens) [compound 11] | HNSCC | +++ | CRC, CLL, AML, BRCA, Uterine Cancer |
| 257 (FLQEWEVYA; listed as Homo sapiens) [compound 257] |  | +++ | CLL, AML, Melanoma, Urinary bladder cancer |
| 217 (AQFGAVLEV; listed as Homo sapiens) [compound 217] | RCC | + | AML, Melanoma |
| 213 (YINEDEYEV; listed as Homo sapiens) [compound 213] | HNSCC | + | CLL, OC |
| 118 (VLDGMIYAI; listed as Homo sapiens) [compound 118] |  | +++ | Uterine Cancer |
| 227 (IIAEGIPEA; listed as Homo sapiens) [compound 227] | RCC, HNSCC | + | SCLC, CLL, Melanoma, Uterine Cancer |
